This is an account of results in article PMC7819943, “Rice protein-binding microarrays: a tool to detect cis-acting elements near promoter regions in rice”.

The list shows a part of the results.

For this assay, the target named is T1, OsSMF1 (Oryza sativa, UniProt Q6ZLB0 1-436).
T1 sequence: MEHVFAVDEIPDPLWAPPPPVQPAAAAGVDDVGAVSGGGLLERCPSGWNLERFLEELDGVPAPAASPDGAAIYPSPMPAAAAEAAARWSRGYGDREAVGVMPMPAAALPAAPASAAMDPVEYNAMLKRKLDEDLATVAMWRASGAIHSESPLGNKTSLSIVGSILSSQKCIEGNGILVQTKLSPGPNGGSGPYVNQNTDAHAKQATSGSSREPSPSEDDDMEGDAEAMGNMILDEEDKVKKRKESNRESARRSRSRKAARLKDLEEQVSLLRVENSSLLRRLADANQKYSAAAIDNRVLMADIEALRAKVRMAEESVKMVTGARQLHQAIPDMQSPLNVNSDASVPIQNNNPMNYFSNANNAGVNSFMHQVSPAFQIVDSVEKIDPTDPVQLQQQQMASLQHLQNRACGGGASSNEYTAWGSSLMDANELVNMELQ
The experiment in a line: protein-binding microarray (RPBM); PBS, 2% BSA, 51.3 ng/ul salmon testes DNA, 50 uM zinc acetate, 200 nM TF, 25 C, 1 h; high values mean tight binding. Particulars: protein: recombinant; tags: N-terminal polyhistidine and DsRed monomer fusion (pET32a); chain copies: 2; label: CyDye5-dUTP incorporated in the synthesized complementary strand; 3' TTTTT single-stranded linker to array surface; dsDNA, one strand shown. A digest of the protocol: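 Transcription factors were made in E. coli BL21-CodonPlus as N-terminal fusions to a polyhistidine tag and DsRed, then purified on Ni–NTA. After primer extension with Cy5-dUTP and blocking with 2% BSA, a custom Agilent array was exposed for 1 h at 25 °C to 200 nM protein in PBS, 2% BSA, salmon testes DNA and 50 µM zinc acetate. Washed arrays were scanned on an Axon 4000B, and the binding signal is per-feature fluorescence intensity in arbitrary units.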
On to “GCATCCACAGCATCGAGGTGACGCTACTCATCGTCAACCACGGAGTCACCTAGTGCAG”, for which the binding signal is 4900 fluorescence intensity (a.u.).
As for “CTTATTTACCTTAACTTAGGTTGCAGCTCAGAACAACCCGCGGAGTCACCTAGTGCAG”, the binding signal is 16000 fluorescence intensity (a.u.).
“TCCTCGCTTTAGCTTCAAATTCCGTGTGTCATAGATGTTGCGGAGTCACCTAGTGCAG”: the binding signal is 3730 fluorescence intensity (a.u.).
In the case of “GATCTCGCTTCTGCCCCGTGGCCACATGCGAACATAACCACGGAGTCACCTAGTGCAG” it was 3870 fluorescence intensity (a.u.); in that of “GTCAACCACAATCAATATGCCACATCAGCACAGACCACCTCGGAGTCACCTAGTGCAG”, 12800 fluorescence intensity (a.u.); in that of “CCTCCACGTGTCCCCACGCAGCCCTCGCCCTCCCATTTCTCGGAGTCACCTAGTGCAG”, 13100 fluorescence intensity (a.u.).
Turning to “GTGGTGTGCTTGCTAATTTAGCAGATTAAACCGGTTTTATCGGAGTCACCTAGTGCAG”, the binding signal is 5760 fluorescence intensity (a.u.).
In the case of “TCTATGTCTTGCTTAGTCACTACTCCGTGGATGAGACTCCCGGAGTCACCTAGTGCAG” it was 8830 fluorescence intensity (a.u.); in that of “GGCTTTTCTGGCGAAAATGCCACGGCGGCGCTGGACCGGTCGGAGTCACCTAGTGCAG”, 4750 fluorescence intensity (a.u.); in that of “TTTGGTTATTCTCGTGCATGTCATGCAGAGCTGGAATCTCCGGAGTCACCTAGTGCAG”, 4670 fluorescence intensity (a.u.).
Consider “TGAAATACTTACAAGTCGATCGAACAACACCTGTCATCATCGGAGTCACCTAGTGCAG”, for which the binding signal is 4160 fluorescence intensity (a.u.).
In the case of “TTCTTGTATCTCTATAGGTTGTTAGAGCGGCGACGGCGAGCGGAGTCACCTAGTGCAG” it was 16500 fluorescence intensity (a.u.); in that of “GCAATTCTGGTCCCATAACAGTATGGATGTCTAGTCAGCACGGAGTCACCTAGTGCAG”, 6530 fluorescence intensity (a.u.); in that of “CTTCTCTTTGTGTTCGCCCGCCTCGGTTAGCAGGTCCTCGCGGAGTCACCTAGTGCAG”, 3360 fluorescence intensity (a.u.).
Turning to “TGCTCGATCTCCTCCCCAGGATTAGGGATGAAACTGGTTCCGGAGTCACCTAGTGCAG”, the binding signal was 4020 fluorescence intensity (a.u.).
In the case of “TCCCACCAAAATCGTCACATGGACATGCCATGTCACATTTCGGAGTCACCTAGTGCAG” it was 7600 fluorescence intensity (a.u.).
In the case of “CAGATTAGGACTTCACTACAATCGACGTGCCATAATTCCCCGGAGTCACCTAGTGCAG” it was 3380 fluorescence intensity (a.u.); in that of “CAAGTGCACAACGATTCCAATGTTCGTCAGCTTCGCAGCACGGAGTCACCTAGTGCAG”, 4620 fluorescence intensity (a.u.); in that of “TAACATATCCTAAAACAATAAATCTGGATAGGAGATTGTTCGGAGTCACCTAGTGCAG”, 31300 fluorescence intensity (a.u.).
On to “TTTCCTTCCTGATTGTAGTAGCACGTAAGCAGCACTAGGTCGGAGTCACCTAGTGCAG”, for which the binding signal was 6490 fluorescence intensity (a.u.).
As to “ATGCTTGTAATTGTCAAGGTGTTAACTGTACGCGGCATATCGGAGTCACCTAGTGCAG”, the binding signal is 4240 fluorescence intensity (a.u.).
Take “AGAGAGATCCCAATATCACATATTCCACACGCGTACACAACGGAGTCACCTAGTGCAG”: the binding signal is 30400 fluorescence intensity (a.u.).
In the case of “AAACAAAATAACTTTATTGTGAGCTGGACCCATGCATTTTCGGAGTCACCTAGTGCAG”, the binding signal is 3580 fluorescence intensity (a.u.).
On to “CCACATTCCTCCACGTCTCCCGCACCGCCCTTTATTTCCCCGGAGTCACCTAGTGCAG”, for which the binding signal was 3190 fluorescence intensity (a.u.).
In the case of “GATGACGACTGGGACAGAGAGATGACAAGGACGGATGCTGCGGAGTCACCTAGTGCAG” it was 3830 fluorescence intensity (a.u.).
In the case of “CAATGAATGGATTCACCTGTGAGATGACGTGGTTGTTCCACGGAGTCACCTAGTGCAG” it was 12600 fluorescence intensity (a.u.); in that of “CGTGCCGACGCGTGCCTCGCCAACGTGTCGCAACGCCTCACGGAGTCACCTAGTGCAG”, 8980 fluorescence intensity (a.u.).
In the case of “TCCATATAACACGGTTCAATGACGGAATCTCGACTCGTTGCGGAGTCACCTAGTGCAG” it was 3830 fluorescence intensity (a.u.); in that of “GCGTGGTGCTGGTCTCCAAGGATCCCGACAACATCCGCGACGGAGTCACCTAGTGCAG”, 5380 fluorescence intensity (a.u.).
On to “AGAATATTGGTCGAAGATGACCCTCGAAATGTACAGCTATCGGAGTCACCTAGTGCAG”, for which the binding signal is 3500 fluorescence intensity (a.u.).
With “TGTGGCTGTAAACGTCACGCGTGCCTAACAATCTGCTGCTCGGAGTCACCTAGTGCAG”, the binding signal is 4170 fluorescence intensity (a.u.).
On to “TCTAATGCCACACACGCAGTAAGTAGGCCAGGCCCGTCCCCGGAGTCACCTAGTGCAG”, for which the binding signal is 3410 fluorescence intensity (a.u.).
As for “GCTCCCCACTTATGCCATGCTTTGCCATGCATGACTCCTTCGGAGTCACCTAGTGCAG”, the binding signal was 3600 fluorescence intensity (a.u.).
Regarding “GGTTTTGACCCCGGTTTTGTCCGACGTGGTGGCTGAGTTACGGAGTCACCTAGTGCAG”, the binding signal was 7080 fluorescence intensity (a.u.).
In the case of “GCGGCTTTGCTTACGCGACACTACTGGAGTTAGCGAGCACCGGAGTCACCTAGTGCAG” it was 4090 fluorescence intensity (a.u.); in that of “CACTCCTCTGCTGCTCGTCGTCAATGCCATCCTCATCATGCGGAGTCACCTAGTGCAG”, 3330 fluorescence intensity (a.u.).
In the case of “GGCACCAGATTCAGCCCCTAATGATGATTCTGATGTCACCCGGAGTCACCTAGTGCAG” it was 6090 fluorescence intensity (a.u.).
As for “ACAATGACTGCGACTTACTTCGTCCTCCCTCGGCGCGATACGGAGTCACCTAGTGCAG”, the binding signal was 3190 fluorescence intensity (a.u.).
In the case of “CACATGCCACGCATGCACCACAGTCCACAGTGCTATGTACCGGAGTCACCTAGTGCAG”, the binding signal was 9730 fluorescence intensity (a.u.).
“ACACTTCCCAAAACCCCAAACCGCCCATATCTCTCTCCTCCGGAGTCACCTAGTGCAG”: the binding signal is 3340 fluorescence intensity (a.u.).
In the case of “TAATCATATGTTAACGTCATCTCGTTTTGCATAAAATTATCGGAGTCACCTAGTGCAG” it was 4570 fluorescence intensity (a.u.); in that of “ATTCATATGCAGCACGTACACACGCATGCATGAAGAGGTACGGAGTCACCTAGTGCAG”, 3170 fluorescence intensity (a.u.).
